PubChem BioAssay AID1508597 | Cure First, 2020
Aim: 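Survival screen with siRNA in ovarian cancer cells derived from patients, with or without rucaparib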 (primary screen). Cells: human ovarian carcinoma lines grown from tumours: OCI-P5x (papillary serous) and OCI-C5x (clear cell). Reagent: siRNA pool against human genes, 1.25 pmol siRNA per well. Timing: 72 h or 96 h, depending on the cell culture. Conditions: rucaparib 20 µM (about IC30) or vehicle, present until read-out. Detection: 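ATP luminescence measured at 72 or 96 h according to the culture, then normalised and expressed as percent viability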. Reading the numbers: viability, normalised: higher = more viable cells remaining. Hit rule: 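Active when normalised viability falls below 80 percent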. Calls: active = viability under 80%; inactive = viability 80% or more.
Here is an unselected part of about 2,100 reagents. 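Calls flag viability under 80% in either arm, not effects specific to rucaparib; the reference for percent is not stated.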 A reagent listed more than once was tested more than once; the source does not tell the runs apart. Not given: the 100% reference.

gene knocked down | rucaparib or vehicle | cell line | technical replicate | viability, normalised (%) | Call
EGFR (epidermal growth factor receptor) | Rucaparib | OCI-C5x (clear cell) | 1 | 50.8 | active
EGFR (epidermal growth factor receptor) | Rucaparib | OCI-C5x (clear cell) | 2 | 43 | active
EGFR (epidermal growth factor receptor) | Rucaparib | OCI-C5x (clear cell) | 3 | 44.8 | active
EGFR (epidermal growth factor receptor) | Rucaparib | OCI-P5x (serous) | 1 | 95.2 | inactive
EGFR (epidermal growth factor receptor) | Rucaparib | OCI-P5x (serous) | 2 | 91.6 | inactive
EGFR (epidermal growth factor receptor) | Rucaparib | OCI-P5x (serous) | 3 | 84.9 | inactive
EGFR (epidermal growth factor receptor) | Vehicle | OCI-C5x (clear cell) | 1 | 42.3 | active
EGFR (epidermal growth factor receptor) | Vehicle | OCI-C5x (clear cell) | 2 | 66.1 | active
EGFR (epidermal growth factor receptor) | Vehicle | OCI-C5x (clear cell) | 3 | 60.6 | active
EGFR (epidermal growth factor receptor) | Vehicle | OCI-P5x (serous) | 1 | 94.2 | inactive
EGFR (epidermal growth factor receptor) | Vehicle | OCI-P5x (serous) | 2 | 89.1 | inactive
EGFR (epidermal growth factor receptor) | Vehicle | OCI-P5x (serous) | 3 | 90.4 | inactive
PFKFB2 (6-phosphofructo-2-kinase/fructose-2,6-biphosphatase 2) | Rucaparib | OCI-C5x (clear cell) | 1 | 34.5 | active
PFKFB2 (6-phosphofructo-2-kinase/fructose-2,6-biphosphatase 2) | Rucaparib | OCI-C5x (clear cell) | 2 | 38.2 | active
PFKFB2 (6-phosphofructo-2-kinase/fructose-2,6-biphosphatase 2) | Rucaparib | OCI-C5x (clear cell) | 3 | 49.8 | active
PFKFB2 (6-phosphofructo-2-kinase/fructose-2,6-biphosphatase 2) | Rucaparib | OCI-P5x (serous) | 1 | 44.3 | active
PFKFB2 (6-phosphofructo-2-kinase/fructose-2,6-biphosphatase 2) | Rucaparib | OCI-P5x (serous) | 2 | 59.6 | active
PFKFB2 (6-phosphofructo-2-kinase/fructose-2,6-biphosphatase 2) | Rucaparib | OCI-P5x (serous) | 3 | 44.2 | active
PFKFB2 (6-phosphofructo-2-kinase/fructose-2,6-biphosphatase 2) | Vehicle | OCI-C5x (clear cell) | 1 | 38.7 | active
PFKFB2 (6-phosphofructo-2-kinase/fructose-2,6-biphosphatase 2) | Vehicle | OCI-C5x (clear cell) | 2 | 44.6 | active
PFKFB2 (6-phosphofructo-2-kinase/fructose-2,6-biphosphatase 2) | Vehicle | OCI-C5x (clear cell) | 3 | 57.8 | active
PFKFB2 (6-phosphofructo-2-kinase/fructose-2,6-biphosphatase 2) | Vehicle | OCI-P5x (serous) | 1 | 64.1 | active
PFKFB2 (6-phosphofructo-2-kinase/fructose-2,6-biphosphatase 2) | Vehicle | OCI-P5x (serous) | 2 | 62.8 | active
PFKFB2 (6-phosphofructo-2-kinase/fructose-2,6-biphosphatase 2) | Vehicle | OCI-P5x (serous) | 3 | 62.3 | active
RIOK2 (RIO kinase 2) | Rucaparib | OCI-C5x (clear cell) | 1 | 50.6 | active
RIOK2 (RIO kinase 2) | Rucaparib | OCI-C5x (clear cell) | 2 | 43 | active
RIOK2 (RIO kinase 2) | Rucaparib | OCI-C5x (clear cell) | 3 | 36.1 | active
RIOK2 (RIO kinase 2) | Rucaparib | OCI-P5x (serous) | 1 | 105 | inactive
RIOK2 (RIO kinase 2) | Rucaparib | OCI-P5x (serous) | 2 | 85.1 | inactive
RIOK2 (RIO kinase 2) | Rucaparib | OCI-P5x (serous) | 3 | 98.2 | inactive
RIOK2 (RIO kinase 2) | Vehicle | OCI-C5x (clear cell) | 1 | 36.5 | active
RIOK2 (RIO kinase 2) | Vehicle | OCI-C5x (clear cell) | 2 | 39 | active
RIOK2 (RIO kinase 2) | Vehicle | OCI-C5x (clear cell) | 3 | 46.5 | active
RIOK2 (RIO kinase 2) | Vehicle | OCI-P5x (serous) | 1 | 88.4 | inactive
RIOK2 (RIO kinase 2) | Vehicle | OCI-P5x (serous) | 2 | 65 | active
RIOK2 (RIO kinase 2) | Vehicle | OCI-P5x (serous) | 3 | 70.2 | active
BRCA2 (BRCA2 DNA repair associated) | Rucaparib | OCI-C5x (clear cell) | 1 | 70.9 | active
BRCA2 (BRCA2 DNA repair associated) | Rucaparib | OCI-C5x (clear cell) | 1 | 53.2 | active
BRCA2 (BRCA2 DNA repair associated) | Rucaparib | OCI-C5x (clear cell) | 1 | 50.1 | active
BRCA2 (BRCA2 DNA repair associated) | Rucaparib | OCI-C5x (clear cell) | 2 | 37.4 | active
BRCA2 (BRCA2 DNA repair associated) | Rucaparib | OCI-C5x (clear cell) | 2 | 53.5 | active
BRCA2 (BRCA2 DNA repair associated) | Rucaparib | OCI-C5x (clear cell) | 2 | 60 | active
BRCA2 (BRCA2 DNA repair associated) | Rucaparib | OCI-C5x (clear cell) | 3 | 38.6 | active
BRCA2 (BRCA2 DNA repair associated) | Rucaparib | OCI-C5x (clear cell) | 3 | 62.6 | active
BRCA2 (BRCA2 DNA repair associated) | Rucaparib | OCI-C5x (clear cell) | 3 | 67.7 | active
BRCA2 (BRCA2 DNA repair associated) | Rucaparib | OCI-P5x (serous) | 1 | 45.7 | active
BRCA2 (BRCA2 DNA repair associated) | Rucaparib | OCI-P5x (serous) | 1 | 55.2 | active
BRCA2 (BRCA2 DNA repair associated) | Rucaparib | OCI-P5x (serous) | 1 | 59.8 | active
BRCA2 (BRCA2 DNA repair associated) | Rucaparib | OCI-P5x (serous) | 2 | 42.2 | active
BRCA2 (BRCA2 DNA repair associated) | Rucaparib | OCI-P5x (serous) | 2 | 57.5 | active
BRCA2 (BRCA2 DNA repair associated) | Rucaparib | OCI-P5x (serous) | 2 | 72.3 | active
BRCA2 (BRCA2 DNA repair associated) | Rucaparib | OCI-P5x (serous) | 3 | 55 | active
BRCA2 (BRCA2 DNA repair associated) | Rucaparib | OCI-P5x (serous) | 3 | 48 | active
BRCA2 (BRCA2 DNA repair associated) | Rucaparib | OCI-P5x (serous) | 3 | 55.7 | active
BRCA2 (BRCA2 DNA repair associated) | Vehicle | OCI-C5x (clear cell) | 1 | 63.9 | active
BRCA2 (BRCA2 DNA repair associated) | Vehicle | OCI-C5x (clear cell) | 1 | 26.4 | active
BRCA2 (BRCA2 DNA repair associated) | Vehicle | OCI-C5x (clear cell) | 1 | 61.9 | active
BRCA2 (BRCA2 DNA repair associated) | Vehicle | OCI-C5x (clear cell) | 2 | 52 | active
BRCA2 (BRCA2 DNA repair associated) | Vehicle | OCI-C5x (clear cell) | 2 | 53.7 | active
BRCA2 (BRCA2 DNA repair associated) | Vehicle | OCI-C5x (clear cell) | 2 | 42.4 | active
BRCA2 (BRCA2 DNA repair associated) | Vehicle | OCI-C5x (clear cell) | 3 | 32.8 | active
BRCA2 (BRCA2 DNA repair associated) | Vehicle | OCI-C5x (clear cell) | 3 | 42.3 | active
BRCA2 (BRCA2 DNA repair associated) | Vehicle | OCI-C5x (clear cell) | 3 | 64.3 | active
BRCA2 (BRCA2 DNA repair associated) | Vehicle | OCI-P5x (serous) | 1 | 67 | active
BRCA2 (BRCA2 DNA repair associated) | Vehicle | OCI-P5x (serous) | 1 | 67.6 | active
BRCA2 (BRCA2 DNA repair associated) | Vehicle | OCI-P5x (serous) | 1 | 63.3 | active
BRCA2 (BRCA2 DNA repair associated) | Vehicle | OCI-P5x (serous) | 2 | 53 | active
BRCA2 (BRCA2 DNA repair associated) | Vehicle | OCI-P5x (serous) | 2 | 71 | active
BRCA2 (BRCA2 DNA repair associated) | Vehicle | OCI-P5x (serous) | 2 | 63.7 | active
BRCA2 (BRCA2 DNA repair associated) | Vehicle | OCI-P5x (serous) | 3 | 133 | inactive
BRCA2 (BRCA2 DNA repair associated) | Vehicle | OCI-P5x (serous) | 3 | 64.4 | active
BRCA2 (BRCA2 DNA repair associated) | Vehicle | OCI-P5x (serous) | 3 | 83.3 | inactive
